Experimental data reported in patent US20150183721A1, “AMINO-ALCOHOL ANALOGUES AND USES THEREOF” (YISSUM RESEARCH DEVELOPMENT COMPANY OF THE HEBREW …, priority 2009, published 2015).
Some entries share one result that the patent states for a list of compounds. For at least one compound, name, drawing or mass did not settle the structure.

Tests used:
[1] = Solubility of compounds in DMSO, ethanol and Solutol-HS15 (20 mM stock solutions); format: physicochemical
Description: General Procedure for the Solutol Emulsions Preparation
The amino-alcohol compound of the invention (4 μmol) was mixed with Solutol HS15 (6.0 mg) and heated to 70-80° C. Hot water (1 ml) was added to the mixture and stirred thoroughly. Thickening occurs initially due to hydration and reaches a maximum when half of the water has been added. The viscosity decreases as more water is added.
The solubility of compounds of the invention in ethanol and DMSO was tested in order to study their cytotoxicity.

[2] = test system: A2780, A2780cisR, CRL-5803, HT-29; experiment: Cytotoxicity (MTT), overall statements on the four cancer cell-lines; format: cell-based; conditions: 24 hr, compared to cis-Pt
Description: Cytotoxicity Tests (IC50 Determination by MTT test)
The cytotoxicity of the compounds of the invention A1-A12 was tested in comparison to cis-Pt in four cancer cell-lines:
A2780 (ovarian carcinoma cell line),
A2780cisR (ovarian carcinoma-cisPt resistance cell line),
CRL-5803 (non-small cell lung carcinoma cell line), and
HT-29 (Human colon adenocarcinoma grade II) by MTT test after an incubation of 24 hours.
Culture Medium Preparation for Attached Cell-lines: A2780, A2780cisR, CRL-5803, HT-29. • Medium RPMI-1640: 86% • Serum (FCS-fatal calf serum/FBS-fatal bovine serum): 10% • L-Glutamine: 1% • Antibiotics-penicillin-streptomycin(P/S): 1% • Na pyruvate: 1% • HEPES: 1%

Structure (SMILES)	solubility in ethanol and DMSO [1]	anticancer activity (in words) [2]
CCCCCCCCCCCCNCC(O)CCCCCCCCC (centres unmarked) [Compound A10, 1-Dodecyl-amino-undecan-2-ol]	good solubility in ethanol at slightly higher temperatures	–
CCCCCCCCCCCCCCNCC(O)CCCCCCCCC (centres unmarked) [Compound A11, 1-tetradecyl-amino-undecan-2-ol]	–	exhibited anticancer activity as compared to cis-Pt
